# According to PMC7819943, “Rice protein-binding microarrays: a tool to detect cis-acting elements near promoter regions in rice”:
# Some of the results follow.
# Molecular target: T1, OsSMF1 (Oryza sativa, UniProt Q6ZLB0 1-436)
# T1 sequence: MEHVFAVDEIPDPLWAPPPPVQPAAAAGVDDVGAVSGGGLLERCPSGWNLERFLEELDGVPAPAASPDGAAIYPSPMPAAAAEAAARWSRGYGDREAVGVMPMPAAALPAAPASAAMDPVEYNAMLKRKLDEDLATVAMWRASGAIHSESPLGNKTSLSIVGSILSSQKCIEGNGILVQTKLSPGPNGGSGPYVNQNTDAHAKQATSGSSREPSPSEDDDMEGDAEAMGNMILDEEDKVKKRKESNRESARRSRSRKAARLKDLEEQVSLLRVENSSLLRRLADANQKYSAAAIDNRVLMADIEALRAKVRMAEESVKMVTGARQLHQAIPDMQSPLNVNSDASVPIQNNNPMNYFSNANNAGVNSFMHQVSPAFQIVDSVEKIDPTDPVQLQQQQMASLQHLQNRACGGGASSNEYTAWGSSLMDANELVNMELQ
# Assay: protein-binding microarray (RPBM); PBS, 2% BSA, 51.3 ng/ul salmon testes DNA, 50 uM zinc acetate, 200 nM TF, 25 C, 1 h; high values mean tight binding
# Conditions: protein: recombinant; tags: N-terminal polyhistidine and DsRed monomer fusion (pET32a); chain copies: 2; label: CyDye5-dUTP incorporated in the synthesized complementary strand; 3' TTTTT single-stranded linker to array surface; dsDNA, one strand shown
# Summary of the method: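 For the binding signal, per-feature fluorescence intensity was read in arbitrary units on an Axon 4000B scanner. Before scanning, a 2% BSA-blocked custom Agilent array made double-stranded with Cy5-dUTP was washed after 1 h at 25 °C with 200 nM protein and 50 µM zinc acetate. The proteins were Ni–NTA-purified transcription factors with N-terminal polyhistidine and DsRed fusions, expressed in E. coli BL21-CodonPlus.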
row,Sequence,binding signal
1,GACGACGACAACGCCACGACCTCCTCCTCCTCCTCCTCCTCGGAGTCACCTAGTGCAG,3930 fluorescence intensity (a.u.)
2,AAAATCATTTCCCAAACCCATTAGCCAAACACTGCCTAGGCGGAGTCACCTAGTGCAG,21000 fluorescence intensity (a.u.)
3,CCTCGTCTGACAGGTAGTCCCATCACGTGGGCCCCACCTCCGGAGTCACCTAGTGCAG,4370 fluorescence intensity (a.u.)
4,CGATCTGGGAGCACACGCCGCGCCTCGTGTCGCTGAATGCCGGAGTCACCTAGTGCAG,3330 fluorescence intensity (a.u.)
5,GCCACCACCTGCCTCACTGCCACGTGGAGCCCGCACCACCCGGAGTCACCTAGTGCAG,18000 fluorescence intensity (a.u.)
6,ATGTTTTGAGCACCAATCACACACCAATAACGCCAACGTACGGAGTCACCTAGTGCAG,34000 fluorescence intensity (a.u.)
7,ATAGTTAAATATTTGGAGTATCATTTTAGCAAACACACGACGGAGTCACCTAGTGCAG,3970 fluorescence intensity (a.u.)
8,TCCTCCCAAAGATAATTCAGCTGATGATATTTCCATATCTCGGAGTCACCTAGTGCAG,3210 fluorescence intensity (a.u.)
9,CATAACATACTTGATGCGAGTTACTGCTTAGTCACAAAACCGGAGTCACCTAGTGCAG,4210 fluorescence intensity (a.u.)
10,ACAGGTGGAAGCGGCAGCCGGTCCGAAGGTCTCGGGACCACGGAGTCACCTAGTGCAG,3310 fluorescence intensity (a.u.)
11,GTGTGAAACTCATACAAATATAAAATTACTGAACTACCGTCGGAGTCACCTAGTGCAG,49600 fluorescence intensity (a.u.)
12,GAACATCGCGCCGTCCACGTGGACAGCCTCGGACAAGGTGCGGAGTCACCTAGTGCAG,9050 fluorescence intensity (a.u.)
13,ATGCACATACCTAAGAATACCTGTTTGTGACATCATGCGACGGAGTCACCTAGTGCAG,4790 fluorescence intensity (a.u.)
14,ATTAAATGGAATTACTGATAGATGAGGTGTGCTGATAGAACGGAGTCACCTAGTGCAG,5840 fluorescence intensity (a.u.)
15,AATCTATGTGACGTAGCATCCTACGAGAGAGGCGTGGCGTCGGAGTCACCTAGTGCAG,9260 fluorescence intensity (a.u.)
16,TCATTGCCATCACATTGTAGATCTTCAATTGCGTACTTGTCGGAGTCACCTAGTGCAG,3690 fluorescence intensity (a.u.)
17,ATCAAAATAGATTAAAGTTTAGTTTTAACGAAACTAGTTTCGGAGTCACCTAGTGCAG,3180 fluorescence intensity (a.u.)
18,ACATAAGAAGAAGAAGAAATGAATGTGAGTTGGCATTTACCGGAGTCACCTAGTGCAG,4420 fluorescence intensity (a.u.)
19,ATGATGATGATCCTGATCCTGATCTTCCTCCTCGATCGACCGGAGTCACCTAGTGCAG,42700 fluorescence intensity (a.u.)
20,ATGTGAGTTCAAATTCGTATTTCTAGAATGTGTCATATTTCGGAGTCACCTAGTGCAG,4360 fluorescence intensity (a.u.)
21,TTGCTTGCCGTTGCTGGCTGTGTCAGTGTGCCACCCACTCCGGAGTCACCTAGTGCAG,4050 fluorescence intensity (a.u.)

row,Sequence,binding signal
1,TCCTCGTCGTTGTGTTGTCGCGCACGGCGCAGGATGTGCTCGGAGTCACCTAGTGCAG,4230 fluorescence intensity (a.u.)
2,ACCTTGAGTTTGAGTGCGATTCCTCCCTTCTTTCGGTCACCGGAGTCACCTAGTGCAG,21100 fluorescence intensity (a.u.)
3,TGAGCTTTGATGGTATGACTCGATTGTCAGAGTGGTCTGGCGGAGTCACCTAGTGCAG,3810 fluorescence intensity (a.u.)
4,CACTGCAAGTGGTGGTGGTGTTTAGCCTTGTGGGCGCAGCCGGAGTCACCTAGTGCAG,3520 fluorescence intensity (a.u.)
5,GATGGTGTTGAAGAGCAAAGTCATGTTAGTATTTCACTTCCGGAGTCACCTAGTGCAG,4700 fluorescence intensity (a.u.)
6,ACTTCCGCCTTCGCCTCGCGCCACCGCGTCCACATCTGCCCGGAGTCACCTAGTGCAG,3450 fluorescence intensity (a.u.)
7,AGTTCATATACACCTCATCATGCTTTTCATGGATGAAAATCGGAGTCACCTAGTGCAG,3710 fluorescence intensity (a.u.)
8,GGCCGGCGACGCTGAACGGGGTGGGGTAGTCTGCTATTTACGGAGTCACCTAGTGCAG,3580 fluorescence intensity (a.u.)
9,CTGGCTCTAGTGCTGTACCCATATATACCACGTAGGCAGCCGGAGTCACCTAGTGCAG,10500 fluorescence intensity (a.u.)
10,TGCTGAGATAGAGAGCCACTGAGTCAGATCCGACAAAAGCCGGAGTCACCTAGTGCAG,5890 fluorescence intensity (a.u.)
11,GGCTATACAAGCTACCACATCAGATTTGTACTTATGTAGACGGAGTCACCTAGTGCAG,4530 fluorescence intensity (a.u.)
12,GAATTCACATGCCCTTGTCATCATGAATATATATTAGTGGCGGAGTCACCTAGTGCAG,4100 fluorescence intensity (a.u.)
13,AATAAGACGAACGGTCAAACATGTTTTCAAAAGTCAACGGCGGAGTCACCTAGTGCAG,27800 fluorescence intensity (a.u.)
14,AATAGTAGGGTGTGTCACTAGTTGGCTACTTGGCTGTGCACGGAGTCACCTAGTGCAG,4240 fluorescence intensity (a.u.)
15,GTTTGGGATGTCGCGGGGATTTAGGGGCGGTGGGTGGTTTCGGAGTCACCTAGTGCAG,4870 fluorescence intensity (a.u.)
16,TCTCTGACGGCGGTTGGTAGGGTTGGTGAGGCCGAGCGCGCGGAGTCACCTAGTGCAG,4460 fluorescence intensity (a.u.)
17,CGGCCATGGGTGAGAGAAGGAGAGGAGAGGGTTTAGGGCTCGGAGTCACCTAGTGCAG,3580 fluorescence intensity (a.u.)
18,TGACTGACGTGGGATGCTTTTGACCAACCTTTGACTGAGGCGGAGTCACCTAGTGCAG,9270 fluorescence intensity (a.u.)
19,CCGTTCACGAGCTCTCCGCCTCTCTCCTCCTCACCAATTTCGGAGTCACCTAGTGCAG,20400 fluorescence intensity (a.u.)
20,CGCAGTTGGCGAGCGACATGACACGGCATGTGTTGGGTGGCGGAGTCACCTAGTGCAG,4530 fluorescence intensity (a.u.)
21,ACTATATTCCTCTCGACGGCCGTTGCCACGCACCGGCGACCGGAGTCACCTAGTGCAG,3570 fluorescence intensity (a.u.)

# Reprinted from the entries so far (two entries):
row,Sequence,binding signal
20,ATGTGAGTTCAAATTCGTATTTCTAGAATGTGTCATATTTCGGAGTCACCTAGTGCAG,4360 fluorescence intensity (a.u.)
21,TTGCTTGCCGTTGCTGGCTGTGTCAGTGTGCCACCCACTCCGGAGTCACCTAGTGCAG,4050 fluorescence intensity (a.u.)
